Data reported in patent US20040161820A1 (priority 2001, published 2004).
At least one compound was matched to its structure with a doubt left.

System: industrial, laboratory and Amazonian yeast strains
Assay: G418 sensitivity in solid medium YPD
Format: cell-based
Conditions: 200 μg/ml and 500 μg/ml of G418, eight industrial, laboratory and seven Amazonian strains

Q: `CN[C@@H]1[C@@H](O)[C@@H](O[C@@H]2[C@@H](O)[C@H](O[C@H]3O[C@H]([C@@H](C)O)[C@@H](O)[C@H](O)[C@H]3N)[C@@H](N)C[C@H]2N)OC[C@]1(C)O` [G418, geneticin] was tested. Which “Sensitivity of yeast strains to G418” value did it give?
A: The value was “sensitive”.
